Patent publication US7160887B1, “Aromatic amine derivatives, their production and use” (Takeda Pharmaceutical Company Limited, priority 1998, dated 2007)
Counter-ions that a name gives are not always drawn. Some of these results come from one statement about several compounds together. For at least one compound, name, drawing or mass did not settle the structure.

molecular target: human somatostatin receptor; assay: 125I-somatostatin binding inhibition; settings: 50% binding inhibition concentration of 125I-somatostatin binding; human somatostatin receptor-containing CHO cell membrane fraction; 25° C., 60 minutes; read-out: reactivity (IC50, μM) on the human somatostatin receptor

IC50, ≤ 10 µM:
NCc1cccc(Oc2cc(Cl)ccc2N(Cc2ccc(-c3ccccc3)cc2)C(=O)CCC(=O)NCc2ccccc2F)c1 [Example 1, N-[2-(3-aminomethylphenoxy)-4-chlorophenyl]-N-(4-biphenylmethyl)-N′-(2-fluorobenzyl)succinamide hydrochloride]
NCc1cccc(Oc2cc(Cl)ccc2N(Cc2ccc(O)cc2)C(=O)CCC(=O)NCc2ccccc2F)c1 [Example 2, N-[2-(3-aminomethylphenoxy)-4-chlorophenyl]-N-(4-hydroxybenzyl)-N′-(2-fluorobenzyl)succinamide hydrochloride]
NCc1cccc(Oc2cc(Cl)ccc2N(Cc2ccc(Cl)c(Cl)c2)C(=O)CCC(=O)NCc2ccccc2F)c1 [Example 3, N-[2-(3-aminomethylphenoxy)-4-chlorophenyl]-N-(3,4-dichlorobenzyl)-N′-(2-fluorobenzyl)succinamide hydrochloride]
NCc1cccc(Oc2cc(O)ccc2N(Cc2ccc(-c3ccccc3)cc2)C(=O)CCC(=O)NCc2ccccc2F)c1 [Example 4, N-[2-(3-aminomethylphenoxy)-4-hydroxyphenyl]-N-(4-biphenylmethyl)-N′-(2-fluorobenzyl)succinamide hydrochloride]
O=C(CCCN(C(=O)c1ccc(-c2ccccc2)cc1)c1ccc(Cl)cc1Oc1cccc2c1CCNC2)NCc1ccccc1F [Example 5, N-(2-fluorobenzyl)-4-[N′-[4-chloro-2-(1,2,3,4-tetrahydroisoquinolin-5-yloxy)phenyl]-N′-(4-phenylbenzoyl)]aminobutylamide hydrochloride]
NCc1cccc(Oc2cc(Cl)ccc2N(CCCC(=O)NCc2ccccc2F)C(=O)c2ccc(-c3ccccc3)cc2)c1 [Example 6, N-(2-fluorobenzyl)-4-[N′-[2-(3-aminomethylphenoxy)-4-chlorophenyl]-N′-(4-phenylbenzoyl)]aminobutylamide hydrochloride]
NCc1cccc(Oc2cc(Cl)ccc2N(CCCCC(=O)NCc2ccccc2F)C(=O)c2ccc(-c3ccccc3)cc2)c1 [Example 7, N-(2-fluorobenzyl)-5-[N′-[2-(3-aminomethylphenoxy)-4-chlorophenyl]-N′-(4-phenylbenzoyl)]aminovaleramide hydrochloride]
NCc1cccc(Oc2cc(Cl)ccc2N(CCCCCC(=O)NCc2ccccc2F)C(=O)c2ccc(-c3ccccc3)cc2)c1 [Example 8, N-(2-fluorobenzyl)-6-[N′-[2-(3-aminomethylphenoxy)-4-chlorophenyl]-N′-(4-phenylbenzoyl)]aminohexanamide hydrochloride]
NCc1cccc(Oc2cc(Cl)ccc2N(CCC(=O)NCc2ccccc2F)C(=O)c2ccc(-c3ccccc3)cc2)c1 [Example 9, N-(2-fluorobenzyl)-3-[N′-[2-(3-aminomethylphenoxy)-4-chlorophenyl]-N′-(4-phenylbenzoyl)]aminopropionamide hydrochloride]
NCCc1cccc(Oc2ncccc2N(CCCC(=O)NCc2ccccc2F)C(=O)c2ccc(-c3ccccc3)cc2)c1 [Example 10, N-(2-fluorobenzyl)-4-[N′-[2-[3-(2-aminoethyl)phenoxy]-3-pyridyl]-N′-(4-phenylbenzoyl)]aminobutylamide hydrochloride]
NCc1cccc(Oc2ccccc2N(Cc2ccc(-c3ccccc3)cc2)C(=O)CCC(=O)NCc2ccccc2F)c1 [Example 11, N-[2-(3-aminomethylphenoxy)phenyl]-N-(4-biphenylmethyl)-N′-(2-fluorobenzyl)succinamide hydrochloride]
NCc1cccc(Oc2ccccc2N(Cc2ccc(-c3ccccc3)cc2)C(=O)CC(=O)NCc2ccccc2F)c1 [Example 12, N-[2-(3-aminomethylphenoxy)phenyl]-N-(4-biphenylmethyl)-N′-(2-fluorobenzyl)malonamide hydrochloride]
NCc1cccc(Oc2ccccc2N(Cc2ccc(-c3ccccc3)cc2)C(=O)CCCC(=O)NCc2ccccc2F)c1 [Example 13, N-[2-(3-aminomethylphenoxy)phenyl]-N-(4-biphenylmethyl)-N′-(2-fluorobenzyl)glutaramide hydrochloride]
NCCc1cccc(Oc2cc(Cl)ccc2N(Cc2ccc(-c3ccccc3)cc2)C(=O)CCC(=O)NCc2ccccc2F)c1 [Example 14, N-[2-[3-(2-aminoethyl)phenoxy]-4-chlorophenyl]-N-(4-biphenylmethyl)-N′-(2-fluorobenzyl)succinamide hydrochloride]
NCc1ccc(Oc2ccccc2N(Cc2ccc(-c3ccccc3)cc2)C(=O)CCC(=O)NCc2ccccc2F)cc1 [Example 15, N-[2-(4-aminomethylphenoxy)phenyl]-N-(4-biphenylmethyl)-N′-(2-fluorobenzyl)succinamide hydrochloride]
NCc1cccc(Oc2ccccc2N(Cc2ccccc2)C(=O)CCC(=O)NCc2ccc(F)c(F)c2)c1 [Example 19, N-[2-(3-aminomethylphenoxy)phenyl]-N-benzyl-N′-(3,4-difluorobenzyl)succinamide trifluoroacetate]
NCc1cccc(Oc2ccccc2N(Cc2ccccc2)C(=O)CCC(=O)NCc2ccccc2C(F)(F)F)c1 [Example 20, N-[2-(3-aminomethylphenoxy)phenyl]-N-benzyl-N′-(2-trifluoromethylbenzyl)succinamide trifluoroacetate]
NCc1cccc(Oc2ccccc2N(Cc2ccccc2)C(=O)CCC(=O)NCCc2ccc(Cl)cc2Cl)c1 [Example 22, N-[2-(3-aminomethylphenoxy)phenyl]-N-benzyl-N′-[2-(2,4-dichlorophenethyl)]succinamide trifluoroacetate]
NCc1cccc(Oc2ccccc2N(Cc2ccccc2)C(=O)CCC(=O)NCc2cccc3ccccc23)c1 [Example 23, N-[2-(3-aminomethylphenoxy)phenyl]-N-benzyl-N′-(1-naphthylmethyl)succinamide trifluoroacetate]
NCc1cccc(Oc2ccccc2N(Cc2ccccc2)C(=O)CCC(=O)NC2CCc3ccccc32)c1 (stereo not drawn) [Example 24, N-[2-(3-aminomethylphenoxy)phenyl]-N-benzyl-N′-(1-indanyl)succinamide trifluoroacetate]
NCc1cccc(Oc2ccccc2N(Cc2ccccc2)C(=O)CCC(=O)N2CCc3ccccc3C2)c1 [Example 26, N-[2-(3-aminomethylphenoxy)phenyl]-N-benzyl-N′-(1,2,3,4-tetrahydroisoquinolino)succinamide trifluoroacetate]
NCc1cccc(Oc2ccccc2N(Cc2ccc(Oc3ccccc3)cc2)C(=O)CCC(=O)NCc2ccccc2F)c1 [Example 29, N-[2-(3-aminomethylphenoxy)phenyl]-N-(4-phenoxybenzyl)-N′-(2-fluorobenzyl)succinamide trifluoroacetate]
NCc1cccc(Oc2ccccc2N(Cc2ccc(Oc3ccccc3)cc2)C(=O)CCC(=O)NCc2c(F)cccc2F)c1 [Example 30, N-[2-(3-aminomethylphenoxy)phenyl]-N-(4-phenoxybenzyl)-N′-(2,6-difluorobenzyl)succinamide trifluoroacetate]
NCc1cccc(Oc2ccccc2N(Cc2ccc(Oc3ccccc3)cc2)C(=O)CCC(=O)NCc2ccccc2C(F)(F)F)c1 [Example 32, N-[2-(3-aminomethylphenoxy)phenyl]-N-(4-phenoxybenzyl)-N′-(2-trifluoromethylbenzyl)succinamide trifluoroacetate]
